Paper PMC3559603
These are yes or no findings as the source states them, for the method shown. Binding seen in cells or lysates may run through a third protein. Some binding calls cover weakened binding; strength is not graded here. One block for each molecule: values may come before it.

Sequences of proteins named here, by UniProt entry; tags and fusion partners are left off.
UniProt P35570: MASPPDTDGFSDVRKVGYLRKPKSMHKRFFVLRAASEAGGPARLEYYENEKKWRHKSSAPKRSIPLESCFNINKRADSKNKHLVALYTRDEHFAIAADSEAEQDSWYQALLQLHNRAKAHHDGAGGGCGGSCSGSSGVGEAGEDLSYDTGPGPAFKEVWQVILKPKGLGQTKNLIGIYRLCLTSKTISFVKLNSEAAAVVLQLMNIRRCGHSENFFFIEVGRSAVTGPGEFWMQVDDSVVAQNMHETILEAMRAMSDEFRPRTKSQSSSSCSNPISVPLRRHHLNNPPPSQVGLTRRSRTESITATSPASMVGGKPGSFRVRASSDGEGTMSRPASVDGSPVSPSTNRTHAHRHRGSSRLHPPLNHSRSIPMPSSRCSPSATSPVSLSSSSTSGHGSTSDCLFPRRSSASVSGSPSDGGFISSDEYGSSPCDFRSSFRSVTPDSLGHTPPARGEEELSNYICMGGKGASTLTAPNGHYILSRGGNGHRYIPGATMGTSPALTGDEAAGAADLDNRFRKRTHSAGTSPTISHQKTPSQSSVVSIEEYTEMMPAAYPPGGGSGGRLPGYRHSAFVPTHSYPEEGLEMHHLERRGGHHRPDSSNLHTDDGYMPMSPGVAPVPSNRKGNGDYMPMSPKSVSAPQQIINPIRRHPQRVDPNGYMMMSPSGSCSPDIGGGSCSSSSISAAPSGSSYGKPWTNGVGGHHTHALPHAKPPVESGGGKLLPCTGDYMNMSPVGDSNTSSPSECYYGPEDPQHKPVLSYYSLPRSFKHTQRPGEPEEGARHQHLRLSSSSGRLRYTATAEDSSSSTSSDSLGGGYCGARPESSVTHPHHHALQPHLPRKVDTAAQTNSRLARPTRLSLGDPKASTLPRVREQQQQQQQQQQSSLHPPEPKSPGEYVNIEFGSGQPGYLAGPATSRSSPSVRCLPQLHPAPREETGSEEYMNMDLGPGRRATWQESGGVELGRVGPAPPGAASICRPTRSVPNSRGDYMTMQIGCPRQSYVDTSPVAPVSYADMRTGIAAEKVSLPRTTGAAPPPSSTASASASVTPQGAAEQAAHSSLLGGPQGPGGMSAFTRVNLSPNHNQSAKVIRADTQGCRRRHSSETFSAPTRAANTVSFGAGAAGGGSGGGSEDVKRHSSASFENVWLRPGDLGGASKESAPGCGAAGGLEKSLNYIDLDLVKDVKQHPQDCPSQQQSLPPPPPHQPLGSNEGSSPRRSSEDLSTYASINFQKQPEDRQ

Legend:
[1] = target: insulin receptor substrate 1 (rat (endogenous in L6)) (UniProt P35570); assay: co-IP; L6 myotubes serum starved, then stimulated with insulin (100 nM for 5, 20 and 60 min; 10 nM in Fig. 4B); lysates immunoprecipitated with IRS1 or IRS2 antibodies, western blot; also cells transfected with scrambled or nexilin siRNA
[2] = target: T1, IRS2 (rat (endogenous in L6)) (UniProt F1MAL5); assay: as above
T1 sequence: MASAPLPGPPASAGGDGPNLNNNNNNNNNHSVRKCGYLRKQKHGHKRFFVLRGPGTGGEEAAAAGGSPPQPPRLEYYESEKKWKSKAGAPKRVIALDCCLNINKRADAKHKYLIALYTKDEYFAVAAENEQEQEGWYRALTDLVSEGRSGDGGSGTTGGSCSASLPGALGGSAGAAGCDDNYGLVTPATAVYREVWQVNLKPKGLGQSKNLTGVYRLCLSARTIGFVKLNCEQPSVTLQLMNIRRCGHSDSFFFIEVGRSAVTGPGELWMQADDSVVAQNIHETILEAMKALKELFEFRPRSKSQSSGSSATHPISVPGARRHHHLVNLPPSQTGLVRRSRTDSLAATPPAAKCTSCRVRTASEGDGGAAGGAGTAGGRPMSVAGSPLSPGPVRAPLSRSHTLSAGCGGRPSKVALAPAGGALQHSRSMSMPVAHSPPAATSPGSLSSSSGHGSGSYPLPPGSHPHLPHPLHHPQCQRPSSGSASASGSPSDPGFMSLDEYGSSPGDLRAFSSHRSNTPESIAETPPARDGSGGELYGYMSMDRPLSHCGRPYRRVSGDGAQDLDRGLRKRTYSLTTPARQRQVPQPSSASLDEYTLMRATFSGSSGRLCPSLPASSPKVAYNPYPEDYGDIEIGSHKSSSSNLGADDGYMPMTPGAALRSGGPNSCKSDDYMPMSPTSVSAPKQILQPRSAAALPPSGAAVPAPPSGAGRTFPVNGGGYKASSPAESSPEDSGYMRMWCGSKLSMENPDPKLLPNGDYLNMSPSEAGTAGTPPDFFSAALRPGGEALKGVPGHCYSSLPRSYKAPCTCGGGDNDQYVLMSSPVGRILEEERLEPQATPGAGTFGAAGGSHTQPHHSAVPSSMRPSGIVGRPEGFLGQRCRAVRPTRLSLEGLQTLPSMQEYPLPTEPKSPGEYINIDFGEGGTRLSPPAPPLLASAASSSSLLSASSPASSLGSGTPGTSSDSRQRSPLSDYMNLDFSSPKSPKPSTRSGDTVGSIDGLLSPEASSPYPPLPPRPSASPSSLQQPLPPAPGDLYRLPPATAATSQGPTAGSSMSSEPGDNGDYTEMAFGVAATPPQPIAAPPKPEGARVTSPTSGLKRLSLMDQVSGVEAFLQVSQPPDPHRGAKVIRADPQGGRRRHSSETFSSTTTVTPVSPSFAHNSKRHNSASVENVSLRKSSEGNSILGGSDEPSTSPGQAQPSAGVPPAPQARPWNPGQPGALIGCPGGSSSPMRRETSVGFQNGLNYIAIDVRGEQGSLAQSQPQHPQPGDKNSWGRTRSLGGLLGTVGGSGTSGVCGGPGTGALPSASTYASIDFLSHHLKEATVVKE

[3] = target: T1, IRS2 (rat (endogenous in L6)); assay: co-IP; serum starved (basal) L6 myotubes; lysates immunoprecipitated with IRS1 or IRS2 antibodies, western blot; also cells pretreated with Latrunculin B (20 µM, 20 min) or jasplakinolide (2 µM, 30 min) before insulin, in which disassembly of the complex was inhibited; also cells transfected with scrambled or nexilin siRNA
[4] = target: insulin receptor substrate 1 (rat (endogenous in L6)) (UniProt P35570); assay: as above
[5] = target: insulin receptor substrate 1 (rat (endogenous in L6)) (UniProt P35570); assay: condition: only cells stimulated with 100 nM insulin; co-IP; L6 myotubes serum starved, then stimulated with insulin (100 nM for 5, 20 and 60 min; 10 nM in Fig. 4B); lysates immunoprecipitated with IRS1 or IRS2 antibodies, western blot; also cells transfected with scrambled or nexilin siRNA

binding [1]: binds
Molecule: p85α the regulatory subunit of the Type 1A phosphatidylinositol-3-kinase (PI3K) (from UniProt Q63787-1 1-724)

binding [2]: no binding
binding [3]: no binding
binding [4]: binds
binding [5]: no binding
B1: nexilin (protein, UniProt Q9Z2J4 1-656)
chain: MNDVSQKAEILLSSSKPVPKSYVPKLGKGDVKDKFEAMQRAREERNQRRSRDEKQRRKEQYIREREWNRRKQEIKDMLASDEEEEPSKVEKAYVPKLTGTVKGKFDEMEKHRQEEQRKRTEEERKRRIEQDLLEKRKMQRELAKRAEQEGDDSLLITVVPAKSYRAAANRKDPEDLDREHRNGRVSQEEEKTRHEEECRALKEAKCLSLVMDDETEAKKESRFPGKLKSTFEELERQRQENRKKQAEEEARRRLEEERRAFEEARRNMVNEEDESQDTETVFKEYRPGKLRLSFEEIERQRREEEKRKAEEEARRRMEEEKKAFAEARRSMVLDDDSPEIYKAVSQESLTPGKLEINFEQLLRQKMEEERRRTEEERRQKLEMEKQEFEQLRQEMGKEEEENESFGLSREYEELIKLKRSGSIQAKNLKSKFEKIGQLSEKEVQKKIEEERAKRRAIDLEIKEREAENFHEDDDVDVKPAKKSESPFTHKVNMKARFEQMAKARQEEEQRRIEEQKLLRMQFEQKEIDAALQKKREDDEEEEGSIVNGSTTEDEEQTRSGAPWFKKPLRNTSVVDSEPVRFTVKVTGEPKPEVTWWFEGELLQDGEDYQYIERGETYCLYLPETFPEDGGEYMCKAVNSKGSAASTCILTIEMDDY
